{
  "source": "patent US10100096B2",
  "about": "“Tissue protective peptides and uses thereof” (Araim Pharmaceuticals, Inc., priority 2005, dated 2018)",
  "key": {"kidneys, renal ischemia": {"tested_on": "kidneys, renal ischemia", "assay": "Kidney ischemia-reperfusion (acute renal failure)", "assay_type": "in vivo, rat", "details": "Wistar rats; 60 minutes ischemia; 290 pmol/kg-bw i.v.; assessed after 72 hours; p<0.05; FIG. 11"}, "[1]": {"assay": "In vivo assessment of erythropoietic activity and neutralizing antibodies", "design": "species or system rat", "details": "rats; 0.8 μg/kg s.c. 3 days/week over 130 days; EPO at equimolar dosage; FIG. 4"}, "[2]": {"tested_on": "Cisplatinum (CDDT) treated rats", "assay": "Cisplatinum-induced neuropathy and nephropathy", "assay_type": "in vivo, rat", "details": "CDDT 2 mg/kg twice weekly for 5 weeks; peptide 0.4 μg/kg-bw i.p. three times per week; FIG. 9B"}, "[3]": {"tested_on": "right sciatic nerve of rats", "assay": "Sciatic nerve assay (in vivo sciatic nerve injury model)", "design": "species or system rat", "details": "Example 2, Table 1, FIG. 1, FIG. 2, comparison with carbamylated EPO"}},
  "note": "“Also recorded” adds a separate entry of the source. Part of at least one peptide drawing is inferred or uncertain, most often the ends. No end group written: not given here.",
  "data": [
    {"sequence": "QEQLERALNSS [Peptide G]", "values": [
      {"measurement": "kidney injury score (histologic score)", "setting": "kidneys, renal ischemia", "value": "significant reduction in injury score; also recorded: reduced the injury score"},
      {"measurement": "increase in hemoglobin levels (hematocrit)", "setting": "[1]", "value": "neither protein increased hemoglobin levels"},
      {"measurement": "daily urine production (CDDT-induced polyuria)", "setting": "[2]", "value": "prevented CDDT-induced polyuria; also recorded: maintained as normal"},
      {"measurement": "tissue protective activity in the sciatic nerve injury model (in words)", "setting": "[3]", "value": "shown to be tissue protective; also recorded: equivalent to or better than carbamylated EPO"}
    ]},
    {"sequence": "RYLLEAKEAENITTGC [Peptide F]", "values": [
      {"measurement": "kidney injury score (histologic score)", "setting": "kidneys, renal ischemia", "value": "significant reduction in injury score; also recorded: reduced the injury score"},
      {"measurement": "increase in hemoglobin levels (hematocrit)", "setting": "[1]", "value": "neither protein increased hemoglobin levels"},
      {"measurement": "tissue protective activity in the sciatic nerve injury model (in words)", "setting": "[3]", "value": "is also tissue protective"}
    ]}
  ]
}
